Measured values as given in publication PMC6797233.

Target: Homothorax, homeodomain-less isoform (Hth^HM) (Drosophila melanogaster)
Test: co-purification (Co affinity chromatography); Exd and His-tagged Hth^HM co-expressed in E. coli BL21 and co-purified through the His-tag on Hth^HM; used as a complex for EMSAs

B1: Extradenticle (Exd) (protein, UniProt P40427 1-376)
chain: MEDPNRMLAHTGGMMAPQGYGLSGQDDGQNAGSENEVRKQKDIGEILQQIMSISEQSLDEAQARKHTLNCHRMKPALFSVLCEIKEKTVLSIRNTQEEEPPDPQLMRLDNMLIAEGVAGPEKGGGGAAAASAAAASQGGSLSIDGADNAIEHSDYRAKLAQIRQIYHQELEKYEQACNEFTTHVMNLLREQSRTRPITPKEIERMVQIIHKKFSSIQMQLKQSTCEAVMILRSRFLDARRKRRNFSKQASEILNEYFYSHLSNPYPSEEAKEELARKCGITVSQVSNWFGNKRIRYKKNIGKAQEEANLYAAKKAAGASPYSMAGPPSGTTTPMMSPAPPQDSMGYPMGSGGYDQQQPYDNSMGGYDPNLHQDLSP
For B1, the binding was “binds”.

Results are given in words; binding and its absence hold for the method and conditions named. Binding seen in cells or lysates may run through a third protein. Binding can be weak; no strength is given.
